Taken from: PubChem BioAssay AID1224828 (NIAID, 2016)
Screen: 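Regulators linking TLR4 signalling to p65 nuclear translocation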 (primary screen). Cell system: mouse RAW264.7 G9 macrophage reporter cells (GFP-p65, Tnf promoter-mCherry). Reagent: siRNA pool against mouse genes, 100 nM. Duration: 2 days siRNA transfection, then 40 min LPS before fixation. Challenge: LPS (Salmonella minnesota R595) at 10 ng/ml. Read-out: 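Microscopy ratio of nuclear to perinuclear-ring GFP-p65 signal, scaled to the plate median; gene score is the average of two replicate robust z-scores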. Reading the numbers: p65 translocation robust z-score: higher = more nuclear NF-kappaB p65 after LPS than the plate median; nuclear/cytoplasmic p65 ratio: higher = more nuclear NF-kappaB p65. Hit rule: 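Active if robust z is above 3.3 (negative regulators) or below -1.56, the Tlr4 control median (positive regulators); activity score 50 or more; control wells not called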. Calls: active = hit (p65 shift raised or lowered); inactive = no clear change.
Here is a random part of about 17,000 deposited reagents. 762 of them (4.5%) count as active. 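Active calls include both raised and lowered p65 entry, mostly lowered; wells with fewer than 50 cells lack a z-score.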 Raw values vary from plate to plate and are shown uncorrected.

Sirt5 (sirtuin 5)
- p65 translocation robust z-score: 1.27
- nuclear/cytoplasmic p65 ratio, rep 1: 1.57
- nuclear/cytoplasmic p65 ratio, rep 2: 1.4
- low cell count flag: enough cells to score
- call: inactive

Mcph1 (microcephaly, primary autosomal recessive 1)
- p65 translocation robust z-score: 1.37
- nuclear/cytoplasmic p65 ratio, rep 1: 1.67
- nuclear/cytoplasmic p65 ratio, rep 2: 1.55
- low cell count flag: enough cells to score
- call: inactive

Or8b40 (olfactory receptor family 8 subfamily B member 40)
- p65 translocation robust z-score: 0.52
- nuclear/cytoplasmic p65 ratio, rep 1: 1.62
- nuclear/cytoplasmic p65 ratio, rep 2: 1.24
- low cell count flag: enough cells to score
- call: inactive

Mpv17l2 (MPV17 mitochondrial membrane protein-like 2)
- nuclear/cytoplasmic p65 ratio, rep 1: 1.33
- nuclear/cytoplasmic p65 ratio, rep 2: 1.18
- low cell count flag: fewer than 50 cells per well; well left out of scoring
- call: inactive

Disp2 (dispatched RND transporter family member 2)
- p65 translocation robust z-score: 3.52
- nuclear/cytoplasmic p65 ratio, rep 1: 1.91
- nuclear/cytoplasmic p65 ratio, rep 2: 1.83
- low cell count flag: enough cells to score
- call: active

Amer1 (APC membrane recruitment 1)
- p65 translocation robust z-score: 0.96
- nuclear/cytoplasmic p65 ratio, rep 1: 1.5
- nuclear/cytoplasmic p65 ratio, rep 2: 1.61
- low cell count flag: enough cells to score
- call: inactive

Fam199x (family with sequence similarity 199, X-linked)
- p65 translocation robust z-score: 0.77
- nuclear/cytoplasmic p65 ratio, rep 1: 1.66
- nuclear/cytoplasmic p65 ratio, rep 2: 2.01
- low cell count flag: enough cells to score
- call: inactive

Pisd (phosphatidylserine decarboxylase)
- p65 translocation robust z-score: -0.63
- nuclear/cytoplasmic p65 ratio, rep 1: 1.33
- nuclear/cytoplasmic p65 ratio, rep 2: 1.47
- low cell count flag: enough cells to score
- call: inactive

Or52s19 (olfactory receptor family 52 subfamily S member 19)
- p65 translocation robust z-score: 1.34
- nuclear/cytoplasmic p65 ratio, rep 1: 1.62
- nuclear/cytoplasmic p65 ratio, rep 2: 1.35
- low cell count flag: enough cells to score
- call: inactive

Edrf1 (erythroid differentiation regulatory factor 1)
- nuclear/cytoplasmic p65 ratio, rep 1: 1.82
- nuclear/cytoplasmic p65 ratio, rep 2: 1.68
- low cell count flag: fewer than 50 cells per well; well left out of scoring
- call: inactive

Trim47 (tripartite motif-containing 47)
- p65 translocation robust z-score: 3.31
- nuclear/cytoplasmic p65 ratio, rep 1: 1.87
- nuclear/cytoplasmic p65 ratio, rep 2: 1.56
- low cell count flag: enough cells to score
- call: active

Zbtb40 (zinc finger and BTB domain containing 40)
- p65 translocation robust z-score: 2.34
- nuclear/cytoplasmic p65 ratio, rep 1: 1.83
- nuclear/cytoplasmic p65 ratio, rep 2: 1.77
- low cell count flag: enough cells to score
- call: inactive

Cwc15 (CWC15 spliceosome-associated protein)
- p65 translocation robust z-score: 0.22
- nuclear/cytoplasmic p65 ratio, rep 1: 1.53
- nuclear/cytoplasmic p65 ratio, rep 2: 1.28
- low cell count flag: enough cells to score
- call: inactive

Serpina1e (serine (or cysteine) peptidase inhibitor, clade A, member 1E)
- p65 translocation robust z-score: 0.31
- nuclear/cytoplasmic p65 ratio, rep 1: 1.63
- nuclear/cytoplasmic p65 ratio, rep 2: 1.57
- low cell count flag: enough cells to score
- call: inactive

Nisch (nischarin)
- p65 translocation robust z-score: -0.17
- nuclear/cytoplasmic p65 ratio, rep 1: 1.66
- nuclear/cytoplasmic p65 ratio, rep 2: 1.53
- low cell count flag: enough cells to score
- call: inactive

Nr3c1 (nuclear receptor subfamily 3, group C, member 1)
- p65 translocation robust z-score: -0.49
- nuclear/cytoplasmic p65 ratio, rep 1: 1.52
- nuclear/cytoplasmic p65 ratio, rep 2: 1.22
- low cell count flag: enough cells to score
- call: inactive

Or8k3b (olfactory receptor family 8 subfamily K member 3B)
- nuclear/cytoplasmic p65 ratio, rep 1: 1.77
- nuclear/cytoplasmic p65 ratio, rep 2: 1.47
- low cell count flag: fewer than 50 cells per well; well left out of scoring
- call: inactive

Gnai2 (G protein subunit alpha i2)
- p65 translocation robust z-score: -0.31
- nuclear/cytoplasmic p65 ratio, rep 1: 1.33
- nuclear/cytoplasmic p65 ratio, rep 2: 1.4
- low cell count flag: enough cells to score
- call: inactive

F11r (F11 receptor)
- p65 translocation robust z-score: -1.28
- nuclear/cytoplasmic p65 ratio, rep 1: 1.26
- nuclear/cytoplasmic p65 ratio, rep 2: 1.23
- low cell count flag: enough cells to score
- call: inactive

Syt15 (synaptotagmin XV)
- nuclear/cytoplasmic p65 ratio, rep 1: 1.32
- nuclear/cytoplasmic p65 ratio, rep 2: 1.18
- low cell count flag: fewer than 50 cells per well; well left out of scoring
- call: inactive

Hirip3 (HIRA interacting protein 3)
- p65 translocation robust z-score: -0.79
- nuclear/cytoplasmic p65 ratio, rep 1: 1.49
- nuclear/cytoplasmic p65 ratio, rep 2: 1.5
- low cell count flag: enough cells to score
- call: inactive
